According to the supplement of paper PMC12823440, “Inhibitors supercharge kinase turnover through native proteolytic circuits” (Nature, 2025):
Structures can show the parent of a compound that is named as a salt. This is one part of the list. Hit calls seldom repeat between salt and free forms of one compound.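 Kinases, fused to nanoluciferase, were expressed in K562 cells; luminescence was measured every 4 h from 2 to 18 h as percent of control (DMSO = 100%, positive control = 0%). A time point is decreased if signal falls significantly (2 sigma). Hits were called by the authors by a rule that is not shown; the count of time points alone does not decide it.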

Protein sequences, listed by entry. Tags and fused reporters are not part of them. Lines headed by an entry give the natural chain unless they say otherwise; changes in a name come on top.
UniProt Q13555: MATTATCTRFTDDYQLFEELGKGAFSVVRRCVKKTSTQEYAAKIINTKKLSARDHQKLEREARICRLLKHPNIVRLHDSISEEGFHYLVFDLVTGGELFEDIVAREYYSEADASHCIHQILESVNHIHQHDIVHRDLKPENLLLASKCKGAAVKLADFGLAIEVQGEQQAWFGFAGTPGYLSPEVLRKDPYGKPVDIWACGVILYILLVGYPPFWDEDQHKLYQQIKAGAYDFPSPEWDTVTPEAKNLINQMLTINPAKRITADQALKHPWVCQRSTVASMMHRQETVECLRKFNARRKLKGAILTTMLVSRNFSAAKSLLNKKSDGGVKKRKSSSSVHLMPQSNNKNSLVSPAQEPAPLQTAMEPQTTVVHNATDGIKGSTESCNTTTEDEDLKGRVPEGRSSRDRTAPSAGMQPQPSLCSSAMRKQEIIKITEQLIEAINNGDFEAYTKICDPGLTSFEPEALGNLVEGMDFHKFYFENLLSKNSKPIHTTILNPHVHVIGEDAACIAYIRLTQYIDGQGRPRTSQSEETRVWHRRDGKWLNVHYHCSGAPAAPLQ

Biological target: CAMK2G (UniProt Q13555)
Assay: number of time points (of 5) at which kinase-Nluc abundance scored as decreased, DMSO-normalised (count); higher = more persistent destabilization
Settings: K562; 2-18 h

Q: Which “number of time points” value does the source give for Cn1c(N2CCO[C@@H](c3ccc(F)cc3)C2)nc(-c2ccncn2)cc1=O (10 µM) here?
A: 0

Q: For C[C@@H](NC(=O)c1ncnc(N)c1Cl)c1ncc(C(=O)Nc2cc(C(F)(F)F)c(Cl)cn2)s1 (2.5 µM), which “number of time points” value is on record?
A: 2

Q: How did the “number of time points” value turn out when CO/N=C1/C(c2c(O)[nH]c3cc(Cl)c(Cl)cc23)=Nc2ccccc21 (10 µM) was run?
A: 0

Q: For Cc1n[nH]c2ncc(C(=O)N3CCC[C@H]3c3ccc(Cl)cc3)cc12 (10 µM), which “number of time points” value is on record?
A: 0

Q: For Cc1ccc(Nc2cc(N[C@@H]3CCCC[C@@H]3N)nnc2C(N)=O)nc1C (2 µM), which “number of time points” value is on record?
A: 0

Q: NC(=O)c1cnc(N[C@@H]2CCCC[C@@H]2N)nc1Nc1cccc(-n2nccn2)c1 (2.5 µM) was tested. Which “number of time points” value did it give?
A: 0

Q: For CCc1c(C(=O)NNC(=O)[C@H](O)c2cc(F)cc(F)c2)ccc(O)c1C (10 µM), which “number of time points” value is on record?
A: 0

Q: Which “number of time points” value does the source give for CC/C(=C(\c1ccccc1)c1ccc(OCCNC)cc1)c1ccccc1 [N-Desmethyltamoxifen (hydrochloride)] (2.5 µM) here?
A: 0

Q: With CCCCNc1ncc(C(=O)NCc2ccc(-n3ccnc3)cc2)c(NC2CCC(O)CC2)n1 (centres undefined) (10 µM) as the compound, how does the “number of time points” value read?
A: 0

Q: Oc1ccc(-c2cnc3ccc(NCc4ccco4)nn23)cc1 [IRAK inhibitor 2] (2.5 µM) was tested. Which “number of time points” value did it give?
A: 0

Q: How did the “number of time points” value turn out when CS(=O)(=O)c1ccc([C@@H](CC2CCCC2)C(=O)Nc2nccs2)cc1 (10 µM) was run?
A: 0

Q: For CC(=O)O/N=C1/C(c2c(O)[nH]c3cc(Br)ccc23)=Nc2ccccc21 [BIO-acetoxime] (10 µM), which “number of time points” value is on record?
A: 0

Q: How did the “number of time points” value turn out when COc1cc2nc(-c3cc(F)ccc3O)nc(N[C@@H]3CNC[C@H]3C(C)(C)O)c2cc1OC (2.5 µM) was run?
A: 0

Q: How did the “number of time points” value turn out when CS(=O)(=O)c1cccc(CNc2nc(Nc3ccc4c(c3)CCC(=O)N4)ncc2C(F)(F)F)c1 (10 µM) was run?
A: 0

Q: Which “number of time points” value does the source give for Nc1nc(Nc2ccc3c(c2)CC[C@@H](N2CCCC2)CC3)nn1-c1cc2c(nn1)-c1ccccc1CCC2 [Bemcentinib] (2.5 µM) here?
A: 0

Q: Nc1[nH]nc2nnc(-c3c(-c4ccccc4)nn4ccccc34)cc12 (10 µM) was tested. Which “number of time points” value did it give?
A: 0

Q: Which “number of time points” value does the source give for CN1CCN(Cc2ccc(-c3cnc4[nH]cc(-c5ccc6[nH]ccc6c5)c4c3)cc2)CC1 (2.5 µM) here?
A: 0

Q: How did the “number of time points” value turn out when CC(C)n1cnc2c(Nc3cccc(Cl)c3)nc(N[C@H]3CCCC[C@@H]3N)nc21 (2.5 µM) was run?
A: 0

Q: With CCC(F)(F)c1cc(N2CCC(S(C)(=O)=O)CC2)nc2sc(C(N)=O)c(N)c12 (10 µM) as the compound, how does the “number of time points” value read?
A: 0

Q: How did the “number of time points” value turn out when CC(C)c1cc2c(c(O)c1O)[C@@]13CCCC(C)(C)[C@@H]1C[C@@H]2OC3=O [Carnosol] (2.5 µM) was run?
A: 0

Q: How did the “number of time points” value turn out when COc1ccc2nc3ccc(OC)cc3c(SCCCN)c2c1 (10 µM) was run?
A: 0

Q: Which “number of time points” value does the source give for COc1cc2nnc(C(N)=O)c(Nc3ccc(C)cc3F)c2cc1N1CCN(CCO)CC1 (2.5 µM) here?
A: 0

Q: Which “number of time points” value does the source give for Nc1ccc(C(=O)Nc2cccc(-c3nc(N4CCOCC4)c4oc5ncccc5c4n3)c2)cn1 (10 µM) here?
A: 0

Q: For Cc1nn(CC(F)(F)F)cc1Nc1ncc(Br)c(NCc2ccc(S(N)(=O)=O)cc2)n1 (10 µM), which “number of time points” value is on record?
A: 0

Q: With O=C1NC(=O)C(Cc2c[nH]c3c(Cl)cccc23)N1 (centres undefined) [Necroptosis-IN-1] (10 µM) as the compound, how does the “number of time points” value read?
A: 0

Q: With CCCCNc1ncc2c(-c3ccc(F)cc3)nn(CC3CCC(N)CC3)c2n1 (centres undefined) (2.5 µM) as the compound, how does the “number of time points” value read?
A: 0

Q: How did the “number of time points” value turn out when Cn1cc(-c2nc(N[C@@H]3CCCC[C@@H]3N)c(F)c3c2C(=O)NC3)cn1 [TAK-659 (hydrochloride)] (2 µM) was run?
A: 0

Q: O=C1OC(COc2ccccc2[N+](=O)[O-])CC1Cc1ccccc1 (centres undefined) (10 µM) was tested. Which “number of time points” value did it give?
A: 0

Q: With Cc1cnc(Nc2ccc(F)cc2Cl)nc1-c1c[nH]c(C(=O)N[C@H](CO)c2cccc(Cl)c2)c1 (10 µM) as the compound, how does the “number of time points” value read?
A: 0

Q: Which “number of time points” value does the source give for N#Cc1cnc(Nc2cc(NC[C@H]3CNCCO3)c(C(F)(F)F)cn2)cn1 (10 µM) here?
A: 1

Q: Which “number of time points” value does the source give for CNc1cc2c(Nc3cccc(Br)c3)ncnc2cn1 (10 µM) here?
A: 0

Q: With Cc1ncsc1-c1ccc(CNC(=O)[C@@H]2C[C@@H](O)CN2C(=O)[C@@H](NC(=O)COCCOc2ccc(-c3cc(Nc4ccc(OC(F)(F)F)cc4)ncn3)cc2)C(C)(C)C)cc1 (2.5 µM) as the compound, how does the “number of time points” value read?
A: 0

Q: With O=CN1CCN(c2ccc(C=C3C(=O)Nc4ccccc43)cc2)CC1 (10 µM) as the compound, how does the “number of time points” value read?
A: 0

Q: CN1C(=O)[C@@H](NC(=O)c2cc(Cc3ccccc3)on2)COc2ccccc21 (10 µM) was tested. Which “number of time points” value did it give?
A: 0

Q: With O=C(CCl)c1c[nH]c2ccccc12 (2.5 µM) as the compound, how does the “number of time points” value read?
A: 0

Q: How did the “number of time points” value turn out when NC(=O)c1c(NC(=O)C2CC2)sc2c1CCCC2 (10 µM) was run?
A: 0

Q: How did the “number of time points” value turn out when CN(C)c1ccc(/C=C2\C(=O)Nc3ccccc32)c2ccccc12 (10 µM) was run?
A: 0

Q: How did the “number of time points” value turn out when O=C(O)c1c[nH]c2cc(Cl)c(-c3ccc(C4(O)CCC4)cc3)cc12 (10 µM) was run?
A: 0

Q: CC1=C(C#N)C(c2ccc3[nH]nc(C)c3c2)C(C#N)=C(C)N1 (10 µM) was tested. Which “number of time points” value did it give?
A: 0
